From the supplement of paper PMC3334620
The full ranking holds about 33,000 sequences; the median of “E-score (-0.5 to 0.5)” is about -0.0059, and the highest 2% start at about 0.26. This is one part of the list.

Target: T1, Cin5 (UniProt P40917)
T1 sequence: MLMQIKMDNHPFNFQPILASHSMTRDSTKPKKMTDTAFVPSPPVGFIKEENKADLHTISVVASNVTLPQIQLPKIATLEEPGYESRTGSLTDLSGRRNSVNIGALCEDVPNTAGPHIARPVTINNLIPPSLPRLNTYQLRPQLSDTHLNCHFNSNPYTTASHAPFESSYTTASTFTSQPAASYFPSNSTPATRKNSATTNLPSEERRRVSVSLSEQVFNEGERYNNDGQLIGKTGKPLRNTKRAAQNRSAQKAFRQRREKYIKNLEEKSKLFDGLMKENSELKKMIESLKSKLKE
Test: PBM E-score (8-mer binding enrichment) (E-score (-0.5 to 0.5)); higher = stronger / more preferred TF binding
Details: protein concentration: 100 nM; construct: GST-full length
Procedure, shortened: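 The E-score, a modified Wilcoxon-Mann-Whitney statistic, was computed by the Universal PBM Analysis Suite for every ungapped eight-base word pooled with its reverse complement. Scans behind it were normalised with masliner after bound GST-tagged yeast transcription factors were detected with fluorescent anti-GST. The proteins, at about 100-200 nM, had been applied to universal all-10-mer Agilent arrays made double-stranded by primer extension.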

Sequence | PBM E-score
CCCCGTAG | -0.0236
CTCAATGA | 0.0432
CGTGCGAC | -0.205
TAGGACCA | -0.152
CATCCAAA | 0.0456
ACGTGTGA | -0.138
ATCGCGTA | 0.11
AACTCTTC | -0.158
TAAACGTA | 0.114
ATAACGCC | 0.0372
ACTGTTCG | -0.116
AACCGGTG | -0.184
CTATCCCA | -0.0461
ACCTATGG | -0.112
GAGAAACC | -0.0722
CCTCCTTA | -0.196
AGTAATTA | 0.252
AGACGAGG | -0.0995
GCTGGGCC | -0.363
CGGGAATC | 0.0268
TATTCACA | 0.196
CACTCGCG | -0.0249
TAGTTTGA | 0.112
CTCGTACA | 0.0276
CTGGTTAA | -0.0276

Fetched one by one from the entries so far, 3 records:
Sequence | PBM E-score
CTATCCCA | -0.0461
CATCCAAA | 0.0456
CCCCGTAG | -0.0236

The results go on.

Sequence | PBM E-score
CCTCTTAG | 0.147
ATGTGGAA | 0.168
GGAATAAC | 0.0722
CGGCCCAC | -0.238
GGCATCGA | -0.251
AATACACA | 0.117
CCCTCCGC | -0.157
ACTTCAGA | -0.125
TAGCGCCA | -0.0732
GACAACCA | 0.0774
CGGTCAAC | -0.0738
CAACTGAG | 0.0925
TAGGGATA | 0.0697
GAAGCCGA | -0.0222
AGACGCCG | -0.0115
CCAATCAG | -0.0545
AGCGGCAG | -0.0733
CGTCACTA | 0.104
ACTAAGGC | 0.0177
CCGTGTTA | 0.0509
ACCTTTAG | -0.137
ATGTACTA | 0.148
CCTGTTAA | 0.031
ATAGAACA | 0.117
AGAGTGTA | -0.147

Sequence | PBM E-score
AAAGGTCT | -0.0768
ACGCGGAT | 0.0675
ATTTCCCG | 0.258
TAGAGGAA | -0.105
AAAGCGCT | 0.0805
ATCACGCA | -0.0636
GTAGCGGA | 0.0555
CTGGTCGC | -0.152
CGTCGGGA | -0.0688
ATTGGCAA | 0.238
GGTTACCA | 0.0953
TCCATGAA | 0.103
CGAGCAAC | 0.0413
GCCCCCGC | -0.292
ACGGCCAT | -0.202
GACGCTGA | -0.0373
GCTTGACA | -0.0944
AACTGTGT | 0.00851
AGCAAGCA | -0.178
ATTGTTAA | 0.0779
CACCGCTA | -0.0378
CTGTTAAG | -0.14
GTCGATTA | 0.187
TCACGTAA | 0.322
CGGCCAAA | -0.0777

Sequence | PBM E-score
GTCCATCA | 0.0496
AGGTCCCG | 0.0408
GTAAGGCA | 0.00329
CACGGCTG | -0.145
CCCCCGGC | -0.366
ATATGGAG | 0.111
GATCCCGA | -0.00094
CAGCCCCC | -0.441
CTGGGAGA | -0.0758
AGCTGGGG | -0.0511
GTACCGAA | -0.193
ACGAATTC | -0.0242
CGCACCAA | 0.0795
GGGATCGA | -0.0326
ACCGTACC | -0.114
AAAAACAA | 0.218
CGTCCTCA | -0.104
GGCTGAGA | -0.0327
ATGCAGAG | -0.141
ATGGCGAA | 0.231
GACAACTC | 0.0328
ACCCCCTC | -0.445
CCATGGTC | -0.208
CCAGTTCA | 0.0121
GAGGATAC | -0.183

Sequence | PBM E-score
CCTCAGTA | -0.159
AATCATTA | 0.127
CAGGTGGC | -0.168
ATAGTTGC | 0.272
ACCAGCCG | -0.184
ACTTGAAT | 0.133
CGACCTCC | 0.0447
CGTAGTCA | -0.015
TACAGAAA | 0.178
ATAAGGCG | 0.0483
GGAGGAAC | -0.235
CGGTCAAA | 0.0732
AGCTCAAA | 0.0832
CGACGTGA | -0.00516
ATCTCAAG | 0.0932
AGGCTTGA | -0.0503
CAAGACTC | -0.00244
CATCGCGA | 0.0822
CCGGTCAA | 0.048
CGGCACCC | -0.138
AAAGGGGT | -0.18
CCTACTTC | -0.0498
ATATACAC | 0.134
AACAACGG | -0.00693
CCGCTCAA | 0.0248

Copied from the list.
Under PBM E-score, ATAGTTGC shows 0.272
Under PBM E-score, CATCGCGA shows 0.0822
Under PBM E-score, CGGTCAAA shows 0.0732
Under PBM E-score, CGACCTCC shows 0.0447
Under PBM E-score, CCTCAGTA shows -0.159

Carrying on.

Sequence | PBM E-score
AGACACTG | 0.0311
GCCTCCGA | -0.231
ATCAGCGC | 0.0878
CTGCATCA | 0.0824
AGGGGAAG | -0.111
CCTGTGTC | -0.126
CGTAGTAC | -0.00669
GATCGGGA | -0.192
CTAAATAG | 0.00124
AGTCAATG | 0.00288
AAGAAAGA | 0.0854
GGTGCCGA | -0.0421
CTAGAAAC | -0.0492
ACGGTCGG | -0.1
TGATCGCA | -0.143
AGCTCTCG | -0.178
ATCTGACA | 0.0684
CCATGTAG | -0.00831
AATGCCCT | -0.0806
CAGGTAAC | -0.134
CGTATCTA | 0.0495
ACAGAAAC | 0.185
CGATATCG | 0.114
CCCTCAAC | -0.188
AGATGAGG | -0.121

Sequence | PBM E-score
GAAACCTC | -0.0374
AGGAGTGC | -0.112
CCTCTCCG | -0.321
AGTGACAA | 0.114
AGTAGGCA | 0.187
ACGACTCG | -0.193
TCACGACA | -0.0753
TTACGAAA | 0.218
AAGCCATT | 0.0431
AACTATTG | 0.194
AGTAACCC | 0.133
CCCAAAGC | -0.127
ATAGCTTC | -0.0919
GATACTAC | 0.161
CTCGGGTC | 0.0273
AGGAGGCC | -0.298
GAATATAA | 0.112
CGGTAATA | 0.181
ACGTAGCA | 0.0726
CGCCTTCC | -0.228
AAGGTTAA | 0.0178
CGACGACC | 0.01
